Measured data: PubChem BioAssay AID686938 (Drosophila RNAi Screening Center, 2013)
The screen tested about 23,000 reagents; this is an unselected part of those with a known target gene and a result. Of all reagents, 75 (0.33%) were called active. 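Raw plate signals without normalisation; calls rest on plate z-scores that were not deposited; ratio present for only 364 wells.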 Names joined by + are all predicted targets of the reagent. No sequences are given here. Not given: the dose of the treatment.

- Purpose: 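Knock-downs reducing store-operated calcium influx in Drosophila cells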 (primary screen)
- System: Drosophila S2R+ cells
- Reagent: long dsRNA against Drosophila genes, about 0.25 µg dsRNA per well, roughly 10,000 cells
- Duration: 5 days of knock-down before the calcium assay
- Conditions: thapsigargin (SERCA pump blocker) to empty calcium stores; entry signal taken 4 min after adding it
- Read-out: 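Per-well fluo-4 fluorescence in two replicates, unnormalised, measured in resting cells and 4 min after store depletion by the SERCA blocker thapsigargin; ratio of the two present in few wells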
- Scale: calcium entry signal: higher = stronger calcium signal after store depletion; entry to resting ratio: higher = more calcium entry relative to resting level; resting calcium signal: higher = higher resting calcium signal
- Hit rule: 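Called when the plate z-score of the entry-to-rest ratio, mean of duplicates, falls below −3; wells with low overall dye signal (Fmax z below −2) or more than five off-targets excluded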
- Meaning of the calls: active = strongly reduced calcium entry; inactive = no strong reduction

predicted target | DRSC id | calcium entry signal, replicate 1 (fluorescence units) | calcium entry signal, replicate 2 (fluorescence units) | entry to resting ratio | resting calcium signal, replicate 1 (fluorescence units) | resting calcium signal, replicate 2 (fluorescence units) | Call
Nhe2 | DRSC03172 | 4.38e7 | 4.76e7 | – | 2.04e7 | 2.02e7 | inactive
Nhe2 | DRSC03377 | 4.40e7 | 4.58e7 | – | 2.16e7 | 1.98e7 | inactive
CG34353 | DRSC14493 | 3.47e7 | 3.75e7 | – | 1.65e7 | 1.59e7 | inactive
CG34353 | DRSC14517 | 2.53e7 | 3.74e7 | – | 1.31e7 | 1.73e7 | inactive
CG34353 | DRSC14563 | 2.79e7 | 4.71e7 | – | 1.38e7 | 2.15e7 | inactive
CG34353 | DRSC15837 | 2.74e7 | 4.51e7 | – | 1.42e7 | 2.00e7 | inactive
CG34353 | DRSC22429 | 3.70e7 | 3.80e7 | – | 1.87e7 | 1.53e7 | inactive
CG15387 | DRSC00401 | 3.49e7 | 3.59e7 | – | 1.60e7 | 1.67e7 | inactive
Cyp12a4 | DRSC16620 | 3.47e7 | 4.19e7 | – | 4.42e7 | 1.71e7 | inactive
CG5938 | DRSC15923 | 3.52e7 | 3.79e7 | – | 1.65e7 | 1.70e7 | inactive
NSD | DRSC15691 | 2.89e7 | 4.16e7 | – | 1.57e7 | 1.89e7 | inactive
Trf4-1 | DRSC17775 | 3.14e7 | 3.36e7 | – | 1.58e7 | 1.76e7 | inactive
RpS11 | DRSC07289 | 1.36e7 | 2.59e7 | – | 8.40e6 | 1.29e7 | inactive
RpS11 | DRSC22700 | 1.48e7 | 2.09e7 | – | 9.94e6 | 1.30e7 | inactive
TfIIS | DRSC03455 | 4.28e7 | – | – | 2.18e7 | – | inactive
CG11672 | DRSC14344 | 4.46e7 | 3.73e7 | – | 2.16e7 | 1.96e7 | inactive
CG17490 | DRSC03794 | 2.27e7 | 4.82e7 | – | 1.18e7 | 1.99e7 | inactive
CG17490 | DRSC03797 | 5.47e7 | 5.49e7 | – | 2.77e7 | 2.28e7 | inactive
CG11300 | DRSC04104 | 4.13e7 | 4.66e7 | – | 2.05e7 | 2.17e7 | inactive
CG14780 | DRSC18566 | 4.59e7 | 4.43e7 | 2.1 | 2.23e7 | 1.86e7 | inactive
CG11178 | DRSC19396 | 4.04e7 | 4.08e7 | – | 1.76e7 | 2.04e7 | inactive
CG8320 + ATPCL | DRSC07147 | 3.54e7 | 5.72e7 | – | 1.66e7 | 2.64e7 | inactive
gskt | DRSC14056 | 4.28e7 | 5.05e7 | – | 1.96e7 | 1.95e7 | inactive
TrpA1 | DRSC10544 | 3.37e7 | 4.39e7 | – | 1.65e7 | 2.10e7 | inactive
mip40 | DRSC06541 | 3.00e7 | 2.93e7 | – | 1.44e7 | 1.42e7 | inactive
CG1136 | DRSC08184 | 4.36e7 | 3.56e7 | – | 2.79e7 | 1.48e7 | inactive
hoip | DRSC03546 | 1.60e7 | 1.41e7 | – | 1.19e7 | 1.01e7 | inactive
sqd | DRSC15160 | 4.83e7 | 7.07e7 | – | 2.14e7 | 7.60e7 | inactive
sqd | DRSC17066 | 3.37e7 | 1.78e7 | – | 1.55e7 | 9.01e6 | inactive
sqd | DRSC22954 | 2.72e7 | 2.47e7 | – | 1.37e7 | 1.11e7 | inactive
Txl | DRSC11310 | 3.55e7 | 4.57e7 | – | 1.76e7 | 2.08e7 | inactive
Ada2b | DRSC16531 | 4.48e7 | 3.21e7 | – | 2.31e7 | 1.71e7 | inactive
CG5346 | DRSC15778 | 3.75e7 | 3.96e7 | – | 5.24e7 | 1.73e7 | inactive
Pex1 | DRSC11358 | 2.40e7 | 3.17e7 | – | 1.19e7 | 2.17e7 | inactive
CG4042 | DRSC11751 | 2.60e7 | 4.85e7 | – | 1.37e7 | 2.13e7 | inactive
CG46441 | DRSC15561 | 3.68e7 | 3.88e7 | – | 1.86e7 | 1.73e7 | inactive
cmet | DRSC03511 | 3.20e7 | 4.52e7 | – | 1.74e7 | 1.87e7 | inactive
CG5828 | DRSC02900 | 3.94e7 | 3.00e7 | – | 1.87e7 | 1.40e7 | inactive
SmD2 | DRSC12536 | 2.31e7 | 2.13e7 | – | 1.57e7 | 1.33e7 | active
CG8534 | DRSC16439 | 3.26e7 | 4.16e7 | – | 1.57e7 | 1.86e7 | inactive
CG17361 | DRSC10266 | 5.14e7 | 4.53e7 | – | 2.19e7 | 1.94e7 | inactive
Prosalpha1R + Prosalpha1 | DRSC07515 | 1.64e7 | 1.82e7 | – | 1.10e7 | 1.15e7 | inactive
SCOT | DRSC08186 | 3.69e7 | 3.32e7 | – | 1.73e7 | 1.80e7 | inactive
dimm | DRSC03100 | 4.67e7 | 5.34e7 | – | 2.01e7 | 2.28e7 | inactive
Gr23a | DRSC00410 | 3.75e7 | 3.68e7 | – | 1.74e7 | 1.64e7 | inactive
CG12426 | DRSC14516 | 2.76e7 | 5.14e7 | – | 1.48e7 | 2.33e7 | inactive
CG12715 | DRSC19492 | 3.70e7 | 5.05e7 | – | 1.85e7 | 2.46e7 | inactive
CG15386 + CG42371 | DRSC00400 | 3.94e7 | 3.92e7 | – | 1.71e7 | 1.65e7 | inactive
Cdk7 | DRSC18451 | 3.42e7 | 3.51e7 | – | 1.57e7 | 1.50e7 | inactive
Cdk7 | DRSC23327 | 4.23e7 | 2.73e7 | – | 2.44e7 | 1.33e7 | inactive
CG31999 | DRSC17131 | 3.81e7 | 5.78e7 | 2 | 1.92e7 | 2.08e7 | inactive
CG31999 | DRSC17133 | 3.32e7 | 5.37e7 | 2.1 | 1.61e7 | 2.01e7 | inactive
Edem1 | DRSC18573 | 3.78e7 | 4.25e7 | – | 1.66e7 | 2.11e7 | inactive
DnaJ-H | DRSC03273 | 4.75e7 | 3.26e7 | – | 2.12e7 | 1.66e7 | inactive
CG10660 | DRSC09769 | 1.47e7 | 1.62e7 | – | 1.06e7 | 9.31e6 | inactive
CG33792 | DRSC05355 | 4.85e7 | 3.61e7 | – | 2.14e7 | 1.46e7 | inactive
Nepl20 | DRSC14878 | 3.67e7 | 6.33e7 | – | 1.91e7 | 2.63e7 | inactive
CG33969 | DRSC11777 | 2.84e7 | 4.12e7 | – | 1.32e7 | 1.63e7 | inactive

Records above whose target name starts with N or n (4):
predicted target | DRSC id | calcium entry signal, replicate 1 (fluorescence units) | calcium entry signal, replicate 2 (fluorescence units) | entry to resting ratio | resting calcium signal, replicate 1 (fluorescence units) | resting calcium signal, replicate 2 (fluorescence units) | Call
Nhe2 | DRSC03172 | 4.38e7 | 4.76e7 | – | 2.04e7 | 2.02e7 | inactive
Nhe2 | DRSC03377 | 4.40e7 | 4.58e7 | – | 2.16e7 | 1.98e7 | inactive
NSD | DRSC15691 | 2.89e7 | 4.16e7 | – | 1.57e7 | 1.89e7 | inactive
Nepl20 | DRSC14878 | 3.67e7 | 6.33e7 | – | 1.91e7 | 2.63e7 | inactive
